Measurements published in article PMC7931231.
Changes are numbered by the printed parent chain. These are yes or no findings as the source states them, for the method shown. In cells and extracts the contact can be indirect. Some entries that bind do so weakly or less than the wild type. For some assays here: Tags and fused reporters may be left off the sequences shown. One block for each binder: values may come before it.

Columns and labels:
[1] = biological target: T1, Flag-NEK5 K33A (NEK5^K33A, kinase-dead NEK5) (human) (UniProt Q6P3R8); experiment: co-IP; Flag-NEK5^K33A as bait on anti-FLAG M2 agarose, total cell lysate of Flp-In T-REx 293T NEK5^K33A cells, blot with anti-LonP1
T1 sequence: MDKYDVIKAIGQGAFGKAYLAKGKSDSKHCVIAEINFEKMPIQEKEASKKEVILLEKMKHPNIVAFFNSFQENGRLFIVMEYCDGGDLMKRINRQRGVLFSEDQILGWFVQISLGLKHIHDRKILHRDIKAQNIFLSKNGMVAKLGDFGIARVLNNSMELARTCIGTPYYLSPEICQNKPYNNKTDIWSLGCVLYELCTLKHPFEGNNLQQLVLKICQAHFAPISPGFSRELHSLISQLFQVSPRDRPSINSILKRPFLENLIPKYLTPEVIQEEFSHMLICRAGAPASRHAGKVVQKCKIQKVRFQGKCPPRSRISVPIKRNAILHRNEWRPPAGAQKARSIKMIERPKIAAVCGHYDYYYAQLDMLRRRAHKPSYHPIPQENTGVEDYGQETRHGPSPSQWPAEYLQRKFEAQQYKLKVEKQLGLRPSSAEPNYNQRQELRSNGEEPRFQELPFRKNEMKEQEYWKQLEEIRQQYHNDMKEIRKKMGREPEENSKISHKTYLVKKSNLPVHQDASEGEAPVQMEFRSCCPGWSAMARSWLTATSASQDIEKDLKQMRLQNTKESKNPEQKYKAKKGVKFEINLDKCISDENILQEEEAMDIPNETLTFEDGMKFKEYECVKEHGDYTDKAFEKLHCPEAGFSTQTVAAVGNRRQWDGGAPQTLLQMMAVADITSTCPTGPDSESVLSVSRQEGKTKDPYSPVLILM

[2] = biological target: T2, Flag-NEK5 wild-type (NEK5^WT) (human) (UniProt Q6P3R8); experiment: co-IP; Flag-NEK5^WT as bait on anti-FLAG M2 agarose, 3 h at 4 °C, crude mitochondrial extract of Flp-In T-REx 293T cells, eluted with 3x FLAG peptide, blot with anti-LonP1
T2 sequence: T1 sequence with A33K

LonP1-flag = biological target: T3, LonP1-flag (UniProt P36776); experiment: co-IP; reverse co-IP: LonP1-flag as bait on anti-FLAG M2 agarose, 1 h at 4 °C, lysate of co-transfected HEK293T cells, eluted by boiling in sample buffer, blot with anti-Myc and anti-NEK5
T3 sequence: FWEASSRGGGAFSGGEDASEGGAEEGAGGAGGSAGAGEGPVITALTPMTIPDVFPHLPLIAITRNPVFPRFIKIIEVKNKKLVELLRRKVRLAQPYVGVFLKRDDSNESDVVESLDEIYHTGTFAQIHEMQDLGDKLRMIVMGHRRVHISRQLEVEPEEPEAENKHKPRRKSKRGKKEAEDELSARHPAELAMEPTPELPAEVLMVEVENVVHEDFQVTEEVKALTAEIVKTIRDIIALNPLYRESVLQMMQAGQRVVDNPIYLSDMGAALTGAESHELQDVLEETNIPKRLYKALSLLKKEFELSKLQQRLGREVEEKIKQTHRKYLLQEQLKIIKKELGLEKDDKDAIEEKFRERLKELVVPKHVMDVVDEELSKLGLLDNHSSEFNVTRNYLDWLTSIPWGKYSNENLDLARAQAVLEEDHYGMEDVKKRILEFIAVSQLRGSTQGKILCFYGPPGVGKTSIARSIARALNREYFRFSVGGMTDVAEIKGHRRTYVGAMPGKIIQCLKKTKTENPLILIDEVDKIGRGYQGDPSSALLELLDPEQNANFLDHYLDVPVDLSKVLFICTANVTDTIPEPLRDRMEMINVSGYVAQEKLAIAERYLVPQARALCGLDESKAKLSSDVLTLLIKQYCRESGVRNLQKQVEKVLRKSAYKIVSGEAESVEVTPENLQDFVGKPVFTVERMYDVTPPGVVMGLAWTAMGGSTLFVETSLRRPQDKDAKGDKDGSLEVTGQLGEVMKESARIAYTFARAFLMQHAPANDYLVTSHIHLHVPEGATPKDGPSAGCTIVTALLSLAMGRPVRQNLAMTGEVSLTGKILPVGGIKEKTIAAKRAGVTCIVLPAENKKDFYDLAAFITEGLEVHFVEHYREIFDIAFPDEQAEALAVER

[3] = biological target: T4, LonP1 (endogenous, U2OS cells) (human (endogenous in U2OS)) (UniProt P36776); experiment: proximity ligation; Duolink PLA in fixed U2OS cells with anti-NEK5 and anti-LonP1 or anti-TFAM; cells untransfected or transfected with pcDNA3.2LonP1-flag for 48 h; untreated or treated with rotenone 2 μM for 1 h
T4 sequence: T3 sequence

[4] = biological target: T5, TFAM (transcription factor A, mitochondrial; endogenous, U2OS cells) (human (endogenous in U2OS)) (UniProt Q00059); experiment: as above
T5 sequence: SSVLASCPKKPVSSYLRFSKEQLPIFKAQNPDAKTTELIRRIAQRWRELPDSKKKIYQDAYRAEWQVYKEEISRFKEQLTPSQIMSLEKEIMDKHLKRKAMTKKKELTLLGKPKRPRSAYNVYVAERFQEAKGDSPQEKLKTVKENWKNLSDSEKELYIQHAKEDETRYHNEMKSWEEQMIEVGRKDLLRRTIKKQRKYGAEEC

- binding [1]: binds
- binding [2]: binds
B1: LonP1 (endogenous, Flp-In T-REx 293T cells) (protein, UniProt P36776 68-959)
chain: T3 sequence

- binding (LonP1-flag): binds
B2: MYC-NEK5^WT-BioID (protein, UniProt Q6P3R8 1-708)
chain: T1 sequence with A33K

- binding [3]: binds
- binding [4]: binds
B3: NEK5 (endogenous, U2OS cells) (protein, UniProt Q6P3R8 1-708)
chain: T1 sequence with A33K
